Data: patent publication US20090203538A1
No constants are given. Whether binding was seen depends on the method and setting. A result given as binding can be weak or reduced; the word gives no strength.

Target: HER1 (Homo sapiens (Human))
Experiment: antigen assigned by the filing's classifying and identification method; details for this clone not given

- binding: binds
B1: 067-149 antibody (antibody, V domains shown)
VH: QVQLQESGGGLVKPGGSLRLSCAASGFSFSDYYMSWVRQAPGKGLEWISYITSSSSDTDYADSVKGRFTISRDNAKNSLYLQMNSLRADDTAVYYCARVGYYYDYYYYYYMDVWGKGTTVTVSR
VL: SSELTQDPAVSVALGQTVRITCQGDSLRGYYASWYQQKPGQAPVLVVYDENNRPSGIPDRFSGSSSGNTASLTITGAQAEDEADYYCNSRDINLDWVFGGGTKLTVLG
